# Measured values reported in the supplement of paper PMC10849652.
# Protein sequences, listed by entry. Tags and fused reporters are not part of them. Lines headed by an entry give the natural chain unless they say otherwise; changes in a name come on top.
# UniProt Q5JPH6: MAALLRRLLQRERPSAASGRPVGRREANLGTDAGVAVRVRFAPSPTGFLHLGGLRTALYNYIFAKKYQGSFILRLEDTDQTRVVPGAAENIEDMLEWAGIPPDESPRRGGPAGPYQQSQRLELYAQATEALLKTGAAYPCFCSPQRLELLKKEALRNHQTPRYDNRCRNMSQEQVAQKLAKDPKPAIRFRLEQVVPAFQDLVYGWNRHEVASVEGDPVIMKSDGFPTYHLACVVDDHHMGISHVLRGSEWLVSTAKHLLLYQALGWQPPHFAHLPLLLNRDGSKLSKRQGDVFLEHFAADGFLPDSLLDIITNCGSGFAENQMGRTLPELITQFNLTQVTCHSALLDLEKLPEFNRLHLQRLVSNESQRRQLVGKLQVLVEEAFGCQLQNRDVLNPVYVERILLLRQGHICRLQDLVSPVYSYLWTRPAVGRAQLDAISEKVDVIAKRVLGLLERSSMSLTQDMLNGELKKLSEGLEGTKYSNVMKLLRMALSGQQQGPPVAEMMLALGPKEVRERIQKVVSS
# UniProt Q9NRR4: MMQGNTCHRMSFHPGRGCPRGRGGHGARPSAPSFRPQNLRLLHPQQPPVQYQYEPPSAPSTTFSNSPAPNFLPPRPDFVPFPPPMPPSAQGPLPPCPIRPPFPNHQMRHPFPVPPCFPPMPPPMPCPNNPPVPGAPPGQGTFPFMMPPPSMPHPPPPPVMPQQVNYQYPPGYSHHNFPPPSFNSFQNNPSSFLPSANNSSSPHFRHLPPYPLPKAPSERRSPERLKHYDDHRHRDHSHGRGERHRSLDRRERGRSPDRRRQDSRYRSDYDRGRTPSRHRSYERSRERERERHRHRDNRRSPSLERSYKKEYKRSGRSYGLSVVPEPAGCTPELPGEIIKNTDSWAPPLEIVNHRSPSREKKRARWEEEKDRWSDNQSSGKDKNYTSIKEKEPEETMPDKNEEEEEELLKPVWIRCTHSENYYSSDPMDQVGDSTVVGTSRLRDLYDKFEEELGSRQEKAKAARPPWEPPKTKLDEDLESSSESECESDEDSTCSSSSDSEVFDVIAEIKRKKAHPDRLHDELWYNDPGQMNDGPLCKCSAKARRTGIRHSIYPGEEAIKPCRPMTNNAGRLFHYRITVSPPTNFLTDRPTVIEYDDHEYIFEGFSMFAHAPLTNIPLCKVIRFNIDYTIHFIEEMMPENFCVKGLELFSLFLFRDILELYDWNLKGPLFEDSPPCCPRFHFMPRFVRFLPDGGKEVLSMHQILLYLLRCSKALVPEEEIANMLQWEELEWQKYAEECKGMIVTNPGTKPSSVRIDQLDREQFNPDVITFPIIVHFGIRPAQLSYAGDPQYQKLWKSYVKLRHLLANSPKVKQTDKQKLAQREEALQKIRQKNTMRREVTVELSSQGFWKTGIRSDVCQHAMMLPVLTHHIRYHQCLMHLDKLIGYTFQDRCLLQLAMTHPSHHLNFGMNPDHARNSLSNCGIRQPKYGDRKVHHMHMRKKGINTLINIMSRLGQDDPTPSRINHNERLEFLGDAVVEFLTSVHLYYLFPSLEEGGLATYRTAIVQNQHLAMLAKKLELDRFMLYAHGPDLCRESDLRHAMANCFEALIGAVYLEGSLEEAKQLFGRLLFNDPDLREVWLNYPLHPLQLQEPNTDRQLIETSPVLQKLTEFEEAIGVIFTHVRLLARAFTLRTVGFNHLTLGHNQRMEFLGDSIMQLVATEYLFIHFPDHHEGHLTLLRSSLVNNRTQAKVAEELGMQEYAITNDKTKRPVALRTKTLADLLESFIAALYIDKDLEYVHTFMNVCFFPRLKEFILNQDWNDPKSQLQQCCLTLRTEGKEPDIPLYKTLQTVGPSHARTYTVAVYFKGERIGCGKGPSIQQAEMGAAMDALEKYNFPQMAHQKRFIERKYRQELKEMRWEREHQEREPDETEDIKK
# UniProt Q6NUT2: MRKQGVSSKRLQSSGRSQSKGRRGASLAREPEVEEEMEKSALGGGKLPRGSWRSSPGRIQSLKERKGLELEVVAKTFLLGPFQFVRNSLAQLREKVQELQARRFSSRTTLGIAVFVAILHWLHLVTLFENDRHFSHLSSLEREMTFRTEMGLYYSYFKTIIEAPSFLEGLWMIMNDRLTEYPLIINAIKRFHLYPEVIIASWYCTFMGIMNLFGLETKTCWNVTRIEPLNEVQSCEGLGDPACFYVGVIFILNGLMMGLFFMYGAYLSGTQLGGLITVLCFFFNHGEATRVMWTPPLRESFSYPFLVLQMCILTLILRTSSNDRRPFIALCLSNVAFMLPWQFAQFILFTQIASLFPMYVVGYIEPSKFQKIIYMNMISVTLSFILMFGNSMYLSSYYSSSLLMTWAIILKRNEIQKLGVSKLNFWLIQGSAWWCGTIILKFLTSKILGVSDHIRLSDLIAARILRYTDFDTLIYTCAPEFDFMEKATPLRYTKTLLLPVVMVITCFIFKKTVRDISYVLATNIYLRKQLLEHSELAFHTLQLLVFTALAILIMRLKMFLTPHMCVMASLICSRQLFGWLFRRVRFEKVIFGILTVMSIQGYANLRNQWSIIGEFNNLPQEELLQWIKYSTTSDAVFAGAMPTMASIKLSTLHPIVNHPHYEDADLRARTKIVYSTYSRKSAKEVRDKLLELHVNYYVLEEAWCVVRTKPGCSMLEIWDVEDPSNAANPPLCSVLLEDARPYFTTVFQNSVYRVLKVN
# UniProt Q6XUX3: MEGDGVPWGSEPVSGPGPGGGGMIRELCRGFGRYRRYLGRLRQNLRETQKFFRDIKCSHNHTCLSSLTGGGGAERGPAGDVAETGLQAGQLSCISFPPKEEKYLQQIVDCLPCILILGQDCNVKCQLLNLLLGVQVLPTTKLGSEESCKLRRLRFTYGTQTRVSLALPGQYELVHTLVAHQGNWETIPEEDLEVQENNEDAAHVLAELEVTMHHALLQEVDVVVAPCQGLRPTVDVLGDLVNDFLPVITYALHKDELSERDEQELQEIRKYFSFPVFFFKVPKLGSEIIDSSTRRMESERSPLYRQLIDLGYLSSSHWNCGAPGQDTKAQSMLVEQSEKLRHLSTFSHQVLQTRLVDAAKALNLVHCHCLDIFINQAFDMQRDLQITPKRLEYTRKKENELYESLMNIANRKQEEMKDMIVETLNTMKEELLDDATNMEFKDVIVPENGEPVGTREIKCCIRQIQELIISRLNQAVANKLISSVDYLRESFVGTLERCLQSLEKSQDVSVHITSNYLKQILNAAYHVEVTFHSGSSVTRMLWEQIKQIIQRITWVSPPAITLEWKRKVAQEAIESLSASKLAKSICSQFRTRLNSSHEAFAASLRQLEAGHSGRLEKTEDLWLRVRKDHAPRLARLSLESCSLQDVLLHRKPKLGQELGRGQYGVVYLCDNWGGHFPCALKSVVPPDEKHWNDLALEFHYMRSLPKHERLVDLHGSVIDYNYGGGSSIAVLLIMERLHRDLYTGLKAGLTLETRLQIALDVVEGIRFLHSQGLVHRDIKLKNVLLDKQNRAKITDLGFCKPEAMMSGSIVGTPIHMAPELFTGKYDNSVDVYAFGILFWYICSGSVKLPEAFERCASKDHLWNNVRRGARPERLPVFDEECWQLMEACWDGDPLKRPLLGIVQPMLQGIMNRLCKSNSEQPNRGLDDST
# UniProt O14576, whole entry, looked up: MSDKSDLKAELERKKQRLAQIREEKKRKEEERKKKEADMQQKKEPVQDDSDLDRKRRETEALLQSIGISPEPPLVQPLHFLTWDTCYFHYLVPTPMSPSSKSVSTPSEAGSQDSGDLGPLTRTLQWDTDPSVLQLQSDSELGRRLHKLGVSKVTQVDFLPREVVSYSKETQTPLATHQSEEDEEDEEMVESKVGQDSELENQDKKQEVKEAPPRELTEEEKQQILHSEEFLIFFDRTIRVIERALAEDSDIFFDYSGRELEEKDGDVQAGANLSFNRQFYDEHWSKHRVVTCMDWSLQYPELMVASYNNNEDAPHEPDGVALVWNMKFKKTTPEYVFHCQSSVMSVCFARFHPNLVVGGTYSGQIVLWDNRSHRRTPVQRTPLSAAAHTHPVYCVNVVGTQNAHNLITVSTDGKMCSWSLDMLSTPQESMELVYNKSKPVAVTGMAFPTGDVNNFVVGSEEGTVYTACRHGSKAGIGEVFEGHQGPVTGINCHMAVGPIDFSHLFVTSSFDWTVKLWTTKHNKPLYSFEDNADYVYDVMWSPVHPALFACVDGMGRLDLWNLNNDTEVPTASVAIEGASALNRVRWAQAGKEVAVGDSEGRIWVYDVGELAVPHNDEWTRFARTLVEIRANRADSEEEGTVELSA
# UniProt Q96BY6: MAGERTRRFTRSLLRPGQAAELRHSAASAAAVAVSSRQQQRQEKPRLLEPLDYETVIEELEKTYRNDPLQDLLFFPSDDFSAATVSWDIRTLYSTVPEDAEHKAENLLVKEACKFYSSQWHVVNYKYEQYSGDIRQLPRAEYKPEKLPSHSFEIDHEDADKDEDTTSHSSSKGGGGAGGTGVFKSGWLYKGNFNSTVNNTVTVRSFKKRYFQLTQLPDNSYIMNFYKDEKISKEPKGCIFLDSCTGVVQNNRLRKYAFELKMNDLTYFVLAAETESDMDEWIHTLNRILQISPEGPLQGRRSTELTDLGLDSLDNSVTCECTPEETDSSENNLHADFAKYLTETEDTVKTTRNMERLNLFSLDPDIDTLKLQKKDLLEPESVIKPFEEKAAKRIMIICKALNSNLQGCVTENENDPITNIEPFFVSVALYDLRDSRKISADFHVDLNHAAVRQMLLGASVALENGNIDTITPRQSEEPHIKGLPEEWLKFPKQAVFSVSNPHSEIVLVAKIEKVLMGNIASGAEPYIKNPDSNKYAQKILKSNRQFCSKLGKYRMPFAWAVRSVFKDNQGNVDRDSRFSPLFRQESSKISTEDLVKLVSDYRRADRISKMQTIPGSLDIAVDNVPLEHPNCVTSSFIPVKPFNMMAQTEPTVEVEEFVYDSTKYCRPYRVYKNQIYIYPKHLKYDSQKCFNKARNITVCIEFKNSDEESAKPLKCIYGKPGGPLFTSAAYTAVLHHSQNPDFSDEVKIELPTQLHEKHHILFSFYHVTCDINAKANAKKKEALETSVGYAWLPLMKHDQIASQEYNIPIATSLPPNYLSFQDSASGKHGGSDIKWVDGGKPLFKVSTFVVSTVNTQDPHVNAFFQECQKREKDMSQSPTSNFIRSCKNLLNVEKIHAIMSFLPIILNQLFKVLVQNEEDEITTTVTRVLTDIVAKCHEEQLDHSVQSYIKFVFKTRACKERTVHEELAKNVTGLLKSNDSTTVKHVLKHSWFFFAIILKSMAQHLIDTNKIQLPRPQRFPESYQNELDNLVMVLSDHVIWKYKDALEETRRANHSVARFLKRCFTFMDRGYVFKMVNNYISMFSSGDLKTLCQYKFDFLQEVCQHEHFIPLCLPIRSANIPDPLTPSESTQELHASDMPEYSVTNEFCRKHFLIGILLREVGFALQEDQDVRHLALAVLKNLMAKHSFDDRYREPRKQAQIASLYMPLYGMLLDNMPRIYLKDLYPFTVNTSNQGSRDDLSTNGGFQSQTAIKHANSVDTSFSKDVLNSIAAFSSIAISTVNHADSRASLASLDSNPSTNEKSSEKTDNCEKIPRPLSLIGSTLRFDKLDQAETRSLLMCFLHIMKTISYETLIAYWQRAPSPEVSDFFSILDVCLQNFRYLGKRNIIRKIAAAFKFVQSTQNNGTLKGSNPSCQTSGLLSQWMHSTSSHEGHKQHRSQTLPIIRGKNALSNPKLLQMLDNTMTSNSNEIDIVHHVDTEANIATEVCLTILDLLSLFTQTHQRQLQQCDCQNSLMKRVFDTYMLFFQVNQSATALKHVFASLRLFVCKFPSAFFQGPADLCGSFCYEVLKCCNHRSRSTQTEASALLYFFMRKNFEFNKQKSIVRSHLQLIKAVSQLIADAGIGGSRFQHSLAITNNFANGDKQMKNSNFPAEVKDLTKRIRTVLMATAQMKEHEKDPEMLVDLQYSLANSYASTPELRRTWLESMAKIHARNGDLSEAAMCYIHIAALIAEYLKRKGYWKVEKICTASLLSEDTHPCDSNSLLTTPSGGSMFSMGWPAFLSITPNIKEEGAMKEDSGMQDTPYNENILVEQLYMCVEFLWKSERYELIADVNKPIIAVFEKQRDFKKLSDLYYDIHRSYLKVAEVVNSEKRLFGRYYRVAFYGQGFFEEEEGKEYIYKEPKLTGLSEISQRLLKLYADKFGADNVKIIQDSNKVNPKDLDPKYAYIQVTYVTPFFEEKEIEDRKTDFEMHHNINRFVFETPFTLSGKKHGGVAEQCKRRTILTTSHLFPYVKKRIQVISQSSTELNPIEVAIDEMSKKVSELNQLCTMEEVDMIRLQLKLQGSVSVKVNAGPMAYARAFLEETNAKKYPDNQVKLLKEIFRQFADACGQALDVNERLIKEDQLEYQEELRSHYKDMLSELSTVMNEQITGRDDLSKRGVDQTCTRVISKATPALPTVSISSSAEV
# UniProt P51808: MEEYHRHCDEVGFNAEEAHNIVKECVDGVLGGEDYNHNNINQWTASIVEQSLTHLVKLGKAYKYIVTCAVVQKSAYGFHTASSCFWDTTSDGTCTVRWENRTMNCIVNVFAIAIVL
# This is one part of the list.
# What was measured:
# Test in all cases: log2 fold change, soluble protein after heating vs DMSO (PISA); higher = thermal stabilisation; K562 cells, 10 uM, 30 min; active = over 0.2 and 3.5 SD of the protein, either way, in both replicates (recomputed)
# [1] = compound: COC1=CC=C(C=C1)CN2C=CC3=C2C=C(C=C3)C(=O)NO
# Method in brief: (§1)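 Soluble protein was defined as the supernatant after 21,000xg for 90 min. It came from K562 cells at 2×10^6 cells/mL given 10 μM compound for 30 min, heated in aliquots for 3 min across 48°C-58°C, pooled, and extracted in PBS with 0.5% NP-40 at 4°C, and was quantified by TMTpro 16plex LC-MS/MS with equalised channel sums. Thermal stability against control samples, from duplicates, is reported as log2 fold change.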
# idasanutlin = compound: COc1cc(C(=O)O)ccc1NC(=O)[C@@H]1N[C@@H](CC(C)(C)C)[C@](C#N)(c2ccc(Cl)cc2F)[C@H]1c1cccc(Cl)c1F [idasanutlin]
# Method in brief: as §1
# zotarolimus = compound: CO[C@H]1C[C@@H]2CC[C@@H](C)[C@@](O)(O2)C(=O)C(=O)N2CCCC[C@H]2C(=O)O[C@H]([C@H](C)C[C@@H]2CC[C@H](n3cnnn3)[C@H](OC)C2)CC(=O)[C@H](C)/C=C(\C)[C@@H](O)[C@@H](OC)C(=O)[C@H](C)C[C@H](C)/C=C/C=C/C=C/1C [zotarolimus]
# Method in brief: as §1
# alisertib = compound: COc1cc(Nc2ncc3c(n2)-c2ccc(Cl)cc2C(c2c(F)cccc2OC)=NC3)ccc1C(=O)O [alisertib]
# Method in brief: as §1
# [2] = compound: COc1cc2nc(-c3cc(F)ccc3O)nc(N[C@@H]3CNC[C@H]3C(C)(C)O)c2cc1OC
# Method in brief: as §1
# gefitinib = compound: COc1cc2ncnc(Nc3ccc(F)c(Cl)c3)c2cc1OCCCN1CCOCC1 [gefitinib]
# Method in brief: as §1
# [3] = compound: COc1cccc2cc(-c3nc([C@H]4CC[C@H](C(=O)O)CC4)n4ncnc(N)c34)[nH]c12
# Method in brief: as §1
# lapatinib = compound: CS(=O)(=O)CCNCc1ccc(-c2ccc3ncnc(Nc4ccc(OCc5cccc(F)c5)c(Cl)c4)c3c2)o1 [lapatinib]
# Method in brief: as §1
# filanesib = compound: CON(C)C(=O)N1N=C(c2cc(F)ccc2F)S[C@@]1(CCCN)c1ccccc1 [filanesib]
# Method in brief: as §1
# pictilisib = compound: CS(=O)(=O)N1CCN(Cc2cc3nc(-c4cccc5[nH]ncc45)nc(N4CCOCC4)c3s2)CC1 [pictilisib]
# Method in brief: as §1
target,measurement,setting,value
DNAJC30 (UniProt Q96LL9),log2 fold change,[1],inactive: -0.126
same,log2 fold change,idasanutlin,inactive: 0.008
DOLPP1 (UniProt Q86YN1),log2 fold change,[1],inactive: -0.05
same,log2 fold change,zotarolimus,inactive: -0.003
same,log2 fold change,idasanutlin,inactive: -0.043
same,log2 fold change,alisertib,inactive: -0.022
same,log2 fold change,[2],inactive: 0.129
same,log2 fold change,gefitinib,inactive: 0.013
same,log2 fold change,[3],inactive: 0.011
same,log2 fold change,lapatinib,inactive: -0.07
ECHDC3 (UniProt Q96DC8),log2 fold change,[1],inactive: -0.204
same,log2 fold change,filanesib,inactive: 0.025
same,log2 fold change,alisertib,inactive: 0.143
same,log2 fold change,gefitinib,inactive: 0.178
same,log2 fold change,[3],inactive: -0.204
same,log2 fold change,pictilisib,inactive: 0.088
EARS2 isoform 2 (UniProt Q5JPH6),log2 fold change,[1],inactive: -0.068
same,log2 fold change,filanesib,inactive: -0.19
same,log2 fold change,idasanutlin,inactive: -0.103
same,log2 fold change,alisertib,inactive: 0.115
same,log2 fold change,[2],inactive: 0.163
same,log2 fold change,gefitinib,inactive: -0.03
same,log2 fold change,[3],inactive: 0.088
same,log2 fold change,lapatinib,inactive: -0.102
DNAJC16 (UniProt Q9Y2G8),log2 fold change,[1],inactive: -0.059
same,log2 fold change,filanesib,inactive: -0.081
same,log2 fold change,zotarolimus,inactive: -0.106
same,log2 fold change,idasanutlin,inactive: 0.027
same,log2 fold change,[2],inactive: 0.001
same,log2 fold change,gefitinib,inactive: 0.007
same,log2 fold change,lapatinib,inactive: 0.057
same,log2 fold change,pictilisib,inactive: 0.022
DNAJC5 (UniProt Q9H3Z4),log2 fold change,[1],inactive: 0.01
same,log2 fold change,filanesib,inactive: -0.011
same,log2 fold change,idasanutlin,inactive: 0.076
same,log2 fold change,alisertib,inactive: 0.026
same,log2 fold change,[2],inactive: 0.097
same,log2 fold change,gefitinib,inactive: 0.036
same,log2 fold change,[3],inactive: 0.042
same,log2 fold change,lapatinib,inactive: -0.056
same,log2 fold change,pictilisib,inactive: -0.032
DONSON (UniProt Q9NYP3),log2 fold change,[1],inactive: 0.119
same,log2 fold change,filanesib,inactive: 0.339
same,log2 fold change,zotarolimus,inactive: 0.036
same,log2 fold change,idasanutlin,inactive: 0.014
same,log2 fold change,gefitinib,inactive: -0.309
same,log2 fold change,pictilisib,inactive: 0.249
DYM (UniProt Q7RTS9),log2 fold change,[1],inactive: -0.03
same,log2 fold change,filanesib,inactive: 0.01
same,log2 fold change,zotarolimus,inactive: 0.136
same,log2 fold change,alisertib,inactive: -0.232
same,log2 fold change,[2],inactive: -0.01
same,log2 fold change,gefitinib,inactive: 0.036
same,log2 fold change,[3],inactive: 0.075
same,log2 fold change,lapatinib,inactive: 0.037
same,log2 fold change,pictilisib,inactive: 0.003
DOP1B (UniProt Q9Y3R5),log2 fold change,[1],inactive: -0.057
same,log2 fold change,filanesib,inactive: 0.215
same,log2 fold change,zotarolimus,inactive: -0.094
same,log2 fold change,alisertib,inactive: -0.144
same,log2 fold change,gefitinib,inactive: 0.005
same,log2 fold change,[3],inactive: 0.03
same,log2 fold change,pictilisib,inactive: 0.287
E2F3 (UniProt O00716),log2 fold change,[1],inactive: -0.053
same,log2 fold change,filanesib,inactive: -0.022
same,log2 fold change,zotarolimus,inactive: 0.021
same,log2 fold change,alisertib,inactive: -0.068
same,log2 fold change,gefitinib,inactive: -0.022
same,log2 fold change,[3],inactive: 0.18
same,log2 fold change,pictilisib,inactive: 0.041
DST (UniProt Q03001),log2 fold change,[1],inactive: -0.337
same,log2 fold change,filanesib,inactive: 0.038
same,log2 fold change,zotarolimus,inactive: -0.026
same,log2 fold change,idasanutlin,inactive: -0.006
same,log2 fold change,alisertib,inactive: 0.046
same,log2 fold change,[2],inactive: 0.32
same,log2 fold change,gefitinib,inactive: 0.037
same,log2 fold change,[3],inactive: 0.314
same,log2 fold change,lapatinib,inactive: -0.16
same,log2 fold change,pictilisib,inactive: 0.215
DYNC1I2 isoform 2 (UniProt Q13409),log2 fold change,[1],inactive: 0.093
same,log2 fold change,filanesib,inactive: 0.203
same,log2 fold change,zotarolimus,inactive: -0.085
same,log2 fold change,idasanutlin,inactive: 0.201
same,log2 fold change,alisertib,inactive: 0.066
same,log2 fold change,[2],inactive: 0.06
same,log2 fold change,[3],inactive: 0.051
same,log2 fold change,lapatinib,inactive: -0.002
DROSHA (UniProt Q9NRR4),log2 fold change,zotarolimus,inactive: 0.16
same,log2 fold change,idasanutlin,inactive: -0.005
ECM1 isoform 2 (UniProt Q16610),log2 fold change,idasanutlin,inactive: 0.073
same,log2 fold change,alisertib,inactive: 0.889
same,log2 fold change,gefitinib,inactive: -0.012
same,log2 fold change,[3],inactive: -0.073
DPY19L2 (UniProt Q6NUT2),log2 fold change,[1],inactive: -0.152
same,log2 fold change,idasanutlin,inactive: 0.081
same,log2 fold change,alisertib,inactive: -0.364
same,log2 fold change,gefitinib,inactive: 0.017
same,log2 fold change,[3],inactive: -0.085
same,log2 fold change,pictilisib,inactive: -0.027
DYNC2LI1 isoform 2 (UniProt Q8TCX1),log2 fold change,filanesib,inactive: 0.01
same,log2 fold change,zotarolimus,inactive: -0.062
same,log2 fold change,alisertib,inactive: 0.001
same,log2 fold change,[2],inactive: 0.094
same,log2 fold change,[3],inactive: 0
same,log2 fold change,lapatinib,inactive: 0.027
DNPH1 (UniProt H0Y8X4),log2 fold change,zotarolimus,inactive: -0.017
same,log2 fold change,idasanutlin,inactive: 0
same,log2 fold change,alisertib,inactive: -0.089
same,log2 fold change,[2],inactive: -0.077
same,log2 fold change,gefitinib,inactive: -0.072
same,log2 fold change,[3],inactive: 0.179
same,log2 fold change,lapatinib,inactive: 0.265
DOP1A (UniProt Q5JWR5),log2 fold change,alisertib,inactive: -0.013
same,log2 fold change,[3],inactive: 0.02
DNAJB9 (UniProt Q9UBS3),log2 fold change,pictilisib,inactive: -0.165
DUS1L (UniProt Q6P1R4),log2 fold change,zotarolimus,inactive: 0.084
same,log2 fold change,alisertib,inactive: 1.02
same,log2 fold change,[3],inactive: 0.129
same,log2 fold change,pictilisib,inactive: 0.039
DVL2 (UniProt O14641),log2 fold change,filanesib,inactive: 0.375
same,log2 fold change,idasanutlin,inactive: 0.099
same,log2 fold change,[2],inactive: 0.292
same,log2 fold change,lapatinib,inactive: -0.313
same,log2 fold change,pictilisib,inactive: -0.378
DNMT3B (UniProt Q9UBC3),log2 fold change,pictilisib,inactive: 0.418
DPYSL3 isoform 2 (UniProt Q14195),log2 fold change,[2],inactive: 0.027
same,log2 fold change,lapatinib,inactive: -0.063
same,log2 fold change,pictilisib,inactive: 0.395
DOK3 (UniProt Q7L591),log2 fold change,filanesib,inactive: -0.071
same,log2 fold change,zotarolimus,inactive: 0.056
same,log2 fold change,idasanutlin,inactive: 0.01
same,log2 fold change,alisertib,inactive: 0.194
same,log2 fold change,[2],inactive: 0.166
same,log2 fold change,[3],inactive: 0.336
same,log2 fold change,lapatinib,inactive: 0.039
same,log2 fold change,pictilisib,inactive: -0.041
DNASE1L1 (UniProt P49184),log2 fold change,idasanutlin,inactive: 0.007
DSTYK (UniProt Q6XUX3),log2 fold change,zotarolimus,inactive: -0.142
same,log2 fold change,gefitinib,inactive: -0.043
same,log2 fold change,pictilisib,inactive: 0.32
DYNC1I1 (UniProt O14576),log2 fold change,[2],inactive: -0.075
same,log2 fold change,lapatinib,inactive: 0.172
DNAJB2 (UniProt P25686),log2 fold change,[2],inactive: -0.018
same,log2 fold change,lapatinib,inactive: 0.005
same,log2 fold change,pictilisib,inactive: 0
DNAJC15 (UniProt Q9Y5T4),log2 fold change,filanesib,inactive: 0.031
same,log2 fold change,[2],inactive: -0.183
same,log2 fold change,lapatinib,inactive: -0.179
DNAJB1 (UniProt M0R128),log2 fold change,zotarolimus,inactive: -0.062
DOCK1 (UniProt Q14185),log2 fold change,filanesib,inactive: -0.081
same,log2 fold change,zotarolimus,inactive: -0.24
same,log2 fold change,idasanutlin,inactive: 0.094
same,log2 fold change,[2],inactive: 0.411
same,log2 fold change,lapatinib,inactive: -0.206
DNLZ (UniProt Q5SXM8),log2 fold change,filanesib,inactive: 0.013
same,log2 fold change,zotarolimus,inactive: -0.041
same,log2 fold change,idasanutlin,inactive: -0.12
same,log2 fold change,alisertib,inactive: -0.116
same,log2 fold change,[2],inactive: 0.051
same,log2 fold change,gefitinib,inactive: -0.055
same,log2 fold change,[3],inactive: 0.029
same,log2 fold change,lapatinib,inactive: -0.105
DPCD (UniProt Q9BVM2),log2 fold change,[1],inactive: 0.059
same,log2 fold change,idasanutlin,inactive: 0.111
same,log2 fold change,pictilisib,inactive: 0.096
DOCK10 (UniProt Q96BY6),log2 fold change,[1],inactive: 0.117
same,log2 fold change,alisertib,inactive: -0.074
same,log2 fold change,gefitinib,inactive: 0.473
same,log2 fold change,[3],inactive: 0.047
ECT2 isoform 3 (UniProt Q9H8V3),log2 fold change,filanesib,inactive: 0.454
DNAJB14 (UniProt H7C494),log2 fold change,[1],inactive: -0.182
same,log2 fold change,alisertib,inactive: 0
same,log2 fold change,[2],inactive: 0.014
same,log2 fold change,gefitinib,inactive: -0.106
same,log2 fold change,[3],inactive: -0.109
same,log2 fold change,lapatinib,inactive: -0.032
same,log2 fold change,pictilisib,inactive: -0.038
EDRF1 (UniProt Q3B7T1),log2 fold change,filanesib,inactive: 0.052
same,log2 fold change,zotarolimus,active: 0.419
same,log2 fold change,alisertib,inactive: -0.033
same,log2 fold change,[3],inactive: 0.044
same,log2 fold change,pictilisib,inactive: 0.244
DNAJC25 (UniProt Q9H1X3),log2 fold change,[1],inactive: 0.07
same,log2 fold change,[2],inactive: -0.256
same,log2 fold change,lapatinib,inactive: 0.333
DOCK7 (UniProt Q96N67),log2 fold change,filanesib,inactive: -0.134
same,log2 fold change,zotarolimus,inactive: -0.029
same,log2 fold change,idasanutlin,inactive: -0.058
same,log2 fold change,alisertib,inactive: 0.128
same,log2 fold change,[2],inactive: 0.051
same,log2 fold change,gefitinib,inactive: -0.036
same,log2 fold change,[3],inactive: 0.042
same,log2 fold change,lapatinib,inactive: -0.05
same,log2 fold change,pictilisib,inactive: 0.017
DNAJC14 (UniProt Q6Y2X3),log2 fold change,alisertib,inactive: 0.045
same,log2 fold change,[3],inactive: -0.165
DRAP1 (UniProt E9PQX9),log2 fold change,idasanutlin,inactive: 0.123
same,log2 fold change,alisertib,inactive: 0.175
same,log2 fold change,[2],inactive: 0.263
same,log2 fold change,[3],inactive: 0.092
same,log2 fold change,lapatinib,inactive: -0.071
DYNLT3 (UniProt P51808),log2 fold change,zotarolimus,inactive: 0.041
same,log2 fold change,idasanutlin,inactive: 0.044
same,log2 fold change,gefitinib,inactive: 0.004
DOLK (UniProt Q9UPQ8),log2 fold change,filanesib,inactive: -0.118
same,log2 fold change,zotarolimus,inactive: -0.003
same,log2 fold change,idasanutlin,inactive: -0.127
same,log2 fold change,gefitinib,inactive: -0.027
DNM1 (UniProt Q05193),log2 fold change,pictilisib,inactive: 0.091
DNAJC4 (UniProt Q9NNZ3),log2 fold change,[2],inactive: -0.302
same,log2 fold change,lapatinib,inactive: -0.172
DUSP14 (UniProt O95147),log2 fold change,zotarolimus,inactive: 0.035
same,log2 fold change,idasanutlin,inactive: -0.003
same,log2 fold change,alisertib,inactive: 0.742
same,log2 fold change,[3],inactive: 0.3
same,log2 fold change,pictilisib,inactive: 0.039

# No new results follow: an excerpt of the list.
target,measurement,setting,value
DOK3 (UniProt Q7L591),log2 fold change,alisertib,inactive: 0.194
same,log2 fold change,[2],inactive: 0.166
same,log2 fold change,[3],inactive: 0.336
same,log2 fold change,lapatinib,inactive: 0.039
same,log2 fold change,pictilisib,inactive: -0.041
DNASE1L1 (UniProt P49184),log2 fold change,idasanutlin,inactive: 0.007
DSTYK (UniProt Q6XUX3),log2 fold change,zotarolimus,inactive: -0.142

# Reformatted bar-delimited: part of the list above.
target | measurement | setting | value
DST (UniProt Q03001) | log2 fold change | zotarolimus | inactive: -0.026
DNAJC25 (UniProt Q9H1X3) | log2 fold change | [2] | inactive: -0.256
